# From article PMC7423155
# B1: C4orf14 (enzyme, UniProt Q8NC60 1-698)
# chain: MLPARLPFRLLSLFLRGSAPTAARHGLREPLLERRCAAASSFQHSSSLGRELPYDPVDTEGFGEGGDMQERFLFPEYILDPEPQPTREKQLQELQQQQEEEERQRQQRREERRQQNLRARSREHPVVGHPDPALPPSGVNCSGCGAELHCQDAGVPGYLPREKFLRTAEADGGLARTVCQRCWLLSHHRRALRLQVSREQYLELVSAALRRPGPSLVLYMVDLLDLPDALLPDLPALVGPKQLIVLGNKVDLLPQDAPGYRQRLRERLWEDCARAGLLLAPGHQGPQRPVKDEPQDGENPNPPNWSRTVVRDVRLISAKTGYGVEELISALQRSWRYRGDVYLVGATNAGKSTLFNTLLESDYCTAKGSEAIDRATISPWPGTTLNLLKFPICNPTPYRMFKRHQRLKKDSTQAEEDLSEQEQNQLNVLKKHGYVVGRVGRTFLYSEEQKDNIPFEFDADSLAFDMENDPVMGTHKSTKQVELTAQDVKDAHWFYDTPGITKENCILNLLTEKEVNIVLPTQSIVPRTFVLKPGMVLFLGAIGRIDFLQGNQSAWFTVVASNILPVHITSLDRADALYQKHAGHTLLQIPMGGKERMAGFPPLVAEDIMLKEGLGASEAVADIKFSSAGWVSVTPNFKDRLHLRGYTPEGTVLTVRPPLLPYIVNIKGQRIKKSVAYKTKKPPSLMYNVRKKKGKINV
# B2: ERAL1 (enzyme, UniProt O75616 44-437)
# chain: VSCVAGSAFSGPRLASASRSNGQGSALDHFLGFSQPDSSVTPCVPAVSMNRDEQDVLLVHHPDMPENSRVLRVVLLGAPNAGKSTLSNQLLGRKVFPVSRKVHTTRCQALGVITEKETQVILLDTPGIISPGKQKRHHLELSLLEDPWKSMESADLVVVLVDVSDKWTRNQLSPQLLRCLTKYSQIPSVLVMNKVDCLKQKSVLLELTAALTEGVVNGKKLKMRQAFHSHPGTHCPSPAVKDPNTQSVGNPQRIGWPHFKEIFMLSALSQEDVKTLKQYLLTQAQPGPWEYHSAVLTSQTPEEICANIIREKLLEHLPQEVPYNVQQKTAVWEEGPGGELVIQQKLLVPKESYVKLLIGPKGHVISQIAQEAGHDLMDIFLCDVDIRLSVKLLK
# B3: MTG2 (enzyme, UniProt Q9H4K7 1-406)
# chain: MAPARCFSARLRTVFQGVGHWALSTWAGLKPSRLLPQRASPRLLSVGRADLAKHQELPGKKLLSEKKLKRYFVDYRRVLVCGGNGGAGASCFHSEPRKEFGGPDGGDGGNGGHVILRVDQQVKSLSSVLSRYQGFSGEDGGSKNCFGRSGAVLYIRVPVGTLVKEGGRVVADLSCVGDEYIAALGGAGGKGNRFFLANNNRAPVTCTPGQPGQQRVLHLELKTVAHAGMVGFPNAGKSSLLRAISNARPAVASYPFTTLKPHVGIVHYEGHLQIAVADIPGIIRGAHQNRGLGSAFLRHIERCRFLLFVVDLSQPEPWTQVDDLKYELEMYEKGLSARPHAIVANKIDLPEAQANLSQLRDHLGQEVIVLSALTGENLEQLLLHLKVLYDAYAEAELGQGRQPLRW
# B4: RPUSD4 (enzyme, UniProt Q96CM3 16-377)
# chain: NGQGCGSLFTLVSKPFCAAAAASTAINAQRLAEKLRAQKREQDTKKEPVSTNAVQRRVQEIVRFTRQLQRVHPNVLAKALTRGILHQDKNLVVINKPYGLPVHGGPGVQLCITDVLPILAKMLHGHKAEPLHLCHRLDKETTGVMVLAWDKDMAHQVQELFRTRQVVKKYWAITVHVPMPSAGVVDIPIVEKEAQGQQQHHKMTLSPSYRMDDGKMVKVRRSRNAQVAVTQYQVLSSTLSSALVELQPITGIKHQLRVHLSFGLDCPILGDHKYSDWNRLAPQKLSVGTLKKLGLEQSKARYIPLHLHARQLILPALGSGKEELNLVCKLPRFFVHSLHRLRLEMPNEDQNENNEAKCLGAQ
# B5: TRUB2 (enzyme, UniProt O95900 11-331)
# chain: GLFAVYKPPGLKWKHLRDTVELQLLKGLNARKPPAPKQRVRFLLGPMEGSEEKELTLTATSVPSFINHPLVCGPAFAHLKVGVGHRLDAQASGVLVLGVGHGCRLLTDMYNAHLTKDYTVRGLLGKATDDFREDGRLVEKTTYDHVTREKLDRILAVIQGSHQKALVMYSNLDLKTQEAYEMAVRGLIRPMNKSPMLITGIRCLYFAPPEFLLEVQCMHETQKELRKLVHEIGLELKTTAVCTQVRRTRDGFFTLDSALLRTQWDLTNIQDAIRAATPQVAAELEKSLSPGLDTKQLPSPGWSWDSQGPSSTLGLERGAGQ
# Target: STREP2-FLAG-tagged RCC1L^V3 (human)
# Assay: co-IP; STREP2-FLAG-tagged RCC1L isoform as bait, captured on Strep-Tactin Sepharose overnight from trypsin-treated, sucrose gradient-purified HEK mitochondria lysed with 0.8% DDM; 10 washes; elution with 10 mM desthiobiotin; endogenous proteins in the elution found by immunoblot
row,binding,Binder
1,binds,B1
2,binds,B2

# Target: STREP2-FLAG-tagged RCC1L^V2 (human)
# Assay: as above
row,binding,Binder
1,no binding,B3
2,no binding,B1
3,no binding,B4
4,no binding,B2
5,no binding,B5

# These are yes or no findings as the source states them, for the method shown. Binding seen in cells or lysates may run through a third protein. For some of these results: A result given as binding can be weak or reduced; the word gives no strength.
